Experimental data taken from PubChem BioAssay AID1259354 (Paczesny and Yang Labs, IUPUI and University of Michigan, 2018).
Values joined by “and” are separate entries in the source; they are usually repeats but may differ in a detail not shown here. Equal entries are not always repeated. Hit rate of the full screen: of about 78,000 compounds, about 1,800 (2.3%) were called active. This list was built around the results that the source calls inconclusive (neither active nor inactive); the mix of calls is not that of the screen. Cut-off read from the data, not from the text of the source: active = inhibition above about 30%; inconclusive = mostly about 10% to 28%; inactive = weaker than that.

Amino acid sequences for entries named in this document (tags omitted). A change or cut given only in a name is not applied to a line headed by its entry.
UniProt Q01638: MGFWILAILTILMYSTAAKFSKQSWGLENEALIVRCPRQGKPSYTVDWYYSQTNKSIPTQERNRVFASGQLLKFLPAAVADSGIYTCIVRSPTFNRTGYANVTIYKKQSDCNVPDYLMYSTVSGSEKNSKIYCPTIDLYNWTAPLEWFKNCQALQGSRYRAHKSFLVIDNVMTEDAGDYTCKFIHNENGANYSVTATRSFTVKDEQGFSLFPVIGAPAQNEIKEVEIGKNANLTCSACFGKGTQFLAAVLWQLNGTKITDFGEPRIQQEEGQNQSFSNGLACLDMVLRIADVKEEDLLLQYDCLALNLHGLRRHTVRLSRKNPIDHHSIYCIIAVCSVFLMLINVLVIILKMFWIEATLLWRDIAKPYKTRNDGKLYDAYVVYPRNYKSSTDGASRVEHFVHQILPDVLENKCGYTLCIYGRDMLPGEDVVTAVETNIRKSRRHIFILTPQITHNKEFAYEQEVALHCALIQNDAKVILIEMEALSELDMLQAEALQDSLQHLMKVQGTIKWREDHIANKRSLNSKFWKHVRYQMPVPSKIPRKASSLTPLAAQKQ

Molecular target: Interleukin-1 receptor-like 1 (Homo sapiens) (UniProt Q01638)
Assay: blocks human ST2 binding to IL-33, primary screen, biochemical, AlphaLISA (AID 1259354)
Conditions: AlphaLISA ST2-Fc/biotin-IL-33 interaction, 1 h; at 17 µM, active compounds read high

Q: Which inhibition does the source give for `O=C(O)CSc1nnc(-c2cccnc2)n1-c1ccccc1C(F)(F)F` here?
A: inconclusive: 22%

Q: Which inhibition does the source give for `CCOC(=O)C1(CCCc2ccccc2)CCCN(C(=O)c2c(C)noc2C)C1` (centres undefined) here?
A: inactive

Q: Which inhibition does the source give for `N#Cc1c(-c2ccccc2)cc(-c2cccs2)nc1SCC(N)=O` here?
A: inconclusive: 13%

Q: For `COc1ccc2oc(-c3ccccc3)cc(=O)c2c1`, which inhibition is on record?
A: inconclusive: 14%

Q: How did the inhibition turn out when `O=S(=O)(Nc1ccc(-c2cn3ccccc3n2)cc1)c1ccc(Br)cc1` was run?
A: inactive

Q: `COC(=O)c1cccc(NC(=S)N[C@H]2CO[C@H]3[C@@H]2OC[C@@H]3Nc2nccc(-c3cccs3)n2)c1` was tested. Which inhibition did it give?
A: inconclusive: 12%

Q: How did the inhibition turn out when `COc1ccccc1Nc1nc(-c2nnc(-c3cccc(C)c3)o2)nc2ccccc12` was run?
A: inactive

Q: With `COc1ccc(-c2c(C#N)c(N)nc(SCC(N)=O)c2C#N)cc1` as the compound, how does the inhibition read?
A: inactive

Q: With `O=C(Nc1cnn(Cc2ccc(F)cc2)c1)c1noc2c1CCCC2` as the compound, how does the inhibition read?
A: inconclusive: 14%

Q: With `Cc1csc2ncc(C(=O)Nc3ccccc3C#N)c(=O)n12` as the compound, how does the inhibition read?
A: inconclusive: 11%

Q: How did the inhibition turn out when `Cc1ccc(OCC(=O)Nc2nnc(C(C)C)s2)c(C)c1` was run?
A: inconclusive: 14%

Q: For `CCCOC(=O)N1CCC(c2nn(C)c(=O)n2Cc2ccccc2)CC1`, which inhibition is on record?
A: inconclusive: 10%

Q: How did the inhibition turn out when `NC1(C(=O)NCC2CCCN(Cc3cccc4nonc34)C2)CCC1` (centres undefined) was run?
A: inconclusive: 11%

Q: For `Cc1ccc(CNC(=O)c2ccc3nc4ccc(Cl)cc4c(=O)n3c2)o1`, which inhibition is on record?
A: inactive

Q: `CC(C)(C)NC(=O)CN1C(=O)S/C(=C\c2ccccc2)C1=O` was tested. Which inhibition did it give?
A: inactive

Q: Which inhibition does the source give for `CC(C)Oc1cccc(F)c1-c1ccc2c(c1)CC(=O)N2` here?
A: inactive

Q: With `Cc1ccc(C2(O)CCN(Cc3cccc(Oc4ccccc4)c3)CC2)nc1` as the compound, how does the inhibition read?
A: inconclusive: 16%

Q: `O=C(CSc1nc2ccccc2c(=O)[nH]1)NCc1ccco1` was tested. Which inhibition did it give?
A: inconclusive: 13%

Q: Which inhibition does the source give for `COc1cc(/C=C2\C(=O)NN(c3cccc(Br)c3)C2=O)c([N+](=O)[O-])cc1OC` here?
A: inconclusive: 19%

Q: `O=C(c1ccc(Br)cc1)N(c1ccc(Br)cc1)C1C=CS(=O)(=O)C1` (centres undefined) was tested. Which inhibition did it give?
A: inactive

Q: For `CN(Cc1ncc[nH]1)c1nc(-c2cccnc2)nc2c1cnn2C`, which inhibition is on record?
A: inconclusive: 20%

Q: `CSc1nc(-c2ccccc2)nc(SC)c1C(C)=O` was tested. Which inhibition did it give?
A: inconclusive: 20%

Q: For `CCN1CCN(C(=O)c2ccc(N3CCC(NCc4cccc(OC(F)(F)F)c4)CC3)cc2)CC1`, which inhibition is on record?
A: inconclusive: 16%

Q: `CN1CCN(C(=O)c2cc3n(n2)CCN(c2cc(-n4cccn4)ncn2)C3)CC1` was tested. Which inhibition did it give?
A: inconclusive: 17%

Q: `Cc1cc2nc(COc3ccc(Cl)cc3NC(=O)c3ccc4c(c3)OCO4)cc(=O)n2o1` was tested. Which inhibition did it give?
A: inactive

Q: `O=C(O)c1c[nH]c2c(Cl)c(Cl)ccc2c1=O` was tested. Which inhibition did it give?
A: inconclusive: 19%

Q: With `CC(C)(C)[C@](O)(CC#CCN1CCCC1)c1ccccc1` as the compound, how does the inhibition read?
A: inconclusive: 17%

Q: With `CCOC(=O)c1sc2ncnc(NCCOC)c2c1C` as the compound, how does the inhibition read?
A: inconclusive: 18%

Q: For `COc1cc(C2C3C(C)N(C)C(=O)N(C)C3N(C)C(=O)N2C)ccc1O` (centres undefined), which inhibition is on record?
A: inconclusive: 18%

Q: For `CN1CCN(S(=O)(=O)c2ccc(C(=O)O)cc2)CC1`, which inhibition is on record?
A: inconclusive: 14%

Q: For `Cc1ccc2c(c1Br)C(=O)C(=O)N2`, which inhibition is on record?
A: inactive

Q: For `O=C1CC(c2ccccc2)CN1Cc1ccccc1` (centres undefined), which inhibition is on record?
A: inconclusive: 13%

Q: How did the inhibition turn out when `COc1ccc(NC(=O)c2cc3c(=O)oc4ccccc4c3s2)c(OC)c1` was run?
A: inconclusive: 12%

Q: How did the inhibition turn out when `Cc1ccc(-n2c3nc(=O)n(C)c(=O)c-3cc3ccccc32)cc1` was run?
A: inconclusive: 12%

Q: For `CC1(C)Cc2c(C#N)c(SCC(=O)c3ccccc3)nc(N3CCOCC3)c2CO1`, which inhibition is on record?
A: inconclusive: 11%

Q: For `FC(F)C(F)(F)c1cc(-c2ccccc2)n[nH]1`, which inhibition is on record?
A: inconclusive: 10%

Q: Which inhibition does the source give for `COc1ccc(-c2csc(NC(=O)c3cc(=O)c4ccccc4o3)n2)c(OC)c1` here?
A: inconclusive: 23%

Q: With `OC1CCCN(c2ccnc(NCc3csc(-c4ncccn4)n3)n2)C1` (centres undefined) as the compound, how does the inhibition read?
A: inactive

Q: How did the inhibition turn out when `C/C(=C\CCC(C)C1CC(O)C2(C)C3CCC4C(C)(C)C(OC5OCC(O)C(O)C5O)CCC45CC35CC(O)C12C)C(=O)O` (centres undefined) was run?
A: inconclusive: 19%

Q: Which inhibition does the source give for `CC(=O)c1c(OC(=O)c2ccc(Cl)cc2)ccc2c(C)cc(=O)oc12` here?
A: inactive

Q: `CC(C)OCCCNC(=O)CN1CCN(Cc2ccc(F)cc2Cl)C1=O` was tested. Which inhibition did it give?
A: inactive

Q: How did the inhibition turn out when `Fc1ccccc1CN1CCCC2(CCN(C3CCN(CCc4ccccc4)CC3)C2)C1` (centres undefined) was run?
A: inconclusive: 11%

Q: Which inhibition does the source give for `COc1ccc(S(=O)(=O)N(CC(=O)Nc2cccc(F)c2)c2ccccc2)cc1` here?
A: inconclusive: 10%

Q: How did the inhibition turn out when `COc1cccc(C=Nc2ccc3oc(-c4cccc(F)c4)nc3c2)c1O` was run?
A: inconclusive: 20%

Q: For `Cc1nc2cc(-c3ccccc3)nn2c(C(C)(C)C)c1C`, which inhibition is on record?
A: inactive

Q: For `Cc1ccc(NC(=O)C2CCN(c3ccc(-c4cccs4)nn3)CC2)cc1N(C)C`, which inhibition is on record?
A: inconclusive: 10%

Q: For `CCS(=O)(=O)CCCc1nnc(NC(=O)Nc2cccc(C(F)(F)F)c2)s1`, which inhibition is on record?
A: inconclusive: 12%

Q: With `COc1cccc(C(=O)N=c2sc3cc(F)ccc3n2C)c1` as the compound, how does the inhibition read?
A: inactive

Q: `O=C1C2C3CCC(C3)C2C(=O)N1Cc1ccc(F)cc1` (centres undefined) was tested. Which inhibition did it give?
A: inconclusive: 18%

Q: For `COc1cccc(/C=C2/C(=O)N(c3ccc(Cl)c(Cl)c3)N=C2C)c1OCC#N`, which inhibition is on record?
A: inconclusive: 10%

Q: With `c1cc(-c2ccc(-c3nccn3-c3ccc4c(c3)OCO4)o2)[nH]n1` as the compound, how does the inhibition read?
A: inconclusive: 13%

Q: Which inhibition does the source give for `COc1ccc(OC)c(-c2ncnn2-c2sc3c(c2C#N)CCCCC3)c1` here?
A: active: 36% and active: 34%

Q: With `COc1ccc(-c2noc([C@@H]3C[C@@H](O)CN3Cc3ccc([N+](=O)[O-])cc3)n2)cc1` as the compound, how does the inhibition read?
A: inactive

Q: For `Clc1ccc(-c2csc(-c3cccnc3)n2)cc1`, which inhibition is on record?
A: inconclusive: 14%

Q: For `COCc1cc(=O)[nH]c(SCC(=O)Nc2ccc(C)c(C)c2)n1`, which inhibition is on record?
A: inactive

Q: How did the inhibition turn out when `COc1cc(NC(=O)NC[C@H]2O[C@@H](CO)[C@@H](O)[C@H]2N(C)CCN(C)C)cc(OC)c1` was run?
A: inconclusive: 14%

Q: For `COc1ccc(N=Cc2c(O)n(-c3ccccc3C)c(=O)c3ccccc23)cc1OC`, which inhibition is on record?
A: active: 48%

Q: How did the inhibition turn out when `CCn1c(SCC(=O)Nc2ccc(Cl)c(Cl)c2)nnc1-c1ccncc1` was run?
A: inconclusive: 13%

Q: How did the inhibition turn out when `CCOCCCNC(=O)C1(O)c2cc(Br)ccc2NC(=O)N1c1ccccc1` (centres undefined) was run?
A: inconclusive: 15%
